Usually IC50 stands for the concentration that inhibits the measured activity by half.

Chains of the proteins cited; added tags and fusions are not shown. Residues count along the entry.
UniProt Q99683, 649-946 limits assumed: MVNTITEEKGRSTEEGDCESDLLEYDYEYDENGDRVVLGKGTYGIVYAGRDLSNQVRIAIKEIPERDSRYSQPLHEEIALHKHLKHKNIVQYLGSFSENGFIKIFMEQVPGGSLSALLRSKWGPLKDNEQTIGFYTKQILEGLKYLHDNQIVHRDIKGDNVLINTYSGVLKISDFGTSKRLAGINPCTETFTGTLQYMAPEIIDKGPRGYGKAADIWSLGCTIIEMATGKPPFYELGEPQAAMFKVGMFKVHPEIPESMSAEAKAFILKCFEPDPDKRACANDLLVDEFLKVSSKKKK

The structures given here were assigned with low confidence; some may be wrong. Bounds are passed on as bounds.

From patent US11345676B2, “Apoptosis signal-regulating kinase 1 (ASK 1) inhibitor compounds” (PHARMAKEA, INC., priority 2017, dated 2022) come the findings set out here.

The assay deals with ASK1 (Homo sapiens (Human), UniProt Q99683). In words: Human ASK1 ADP-Glo kinase assay. The conditions noted are these: recombinant ASK1 (amino acids 649-946), 50 μM ATP, MBP substrate, tested form: HCl. The procedure:
Example B-1: Human ASK1 ADP-Glo Assay
The ability of test compounds to inhibit ASK1 kinase activity was determined using the luminescent ADP-Glo™ Kinase Assay and Myelin Basic Protein (MBP) as a substrate (Promega Corporation, Madison, Wis.). During the kinase reaction, ASK1 utilizes ATP and generates ADP. The remaining ATP is then depleted by addition of the ADP-Glo™ reagent which also terminates the reaction. Subsequent addition of the Kinase Detection Reagent converts the ADP that was produced during the kinase reaction to ATP, and this newly synthesized ATP is converted to light using the luciferase/luciferin reactions. The assay was performed according to the manufacturer's instructions. […] Following the addition of the Kinase Detection Reagent, the plate was incubated for an additional 40 min at room temperature before reading luminescence on a FlexStation 3 (Molecular Devices, Sunnyvale, Calif.). Maximum activity was determined from wells treated with vehicle and was set to 100% and minimum activity was determined from wells containing no enzyme and this was set to 0%. Percent inhibition was calculated relative to the controls and the data graphed in Collaborative Drug Discovery (CDD) Vault (Burlingame, Calif.).

On to `O=C(Nc1ccc(F)c(C(=O)Nc2cccc(-c3nncn3C3CC3)n2)c1)c1ccccc1`, for which the IC50 is under 300 nM.
